Laboratory results as given in patent US20210290612A1.
These are yes or no findings as the source states them, for the method shown. Binding seen in cells or lysates may run through a third protein. Some results given as binding are weak or reduced against the parent protein; the word gives no strength.

Sequences of proteins named here, by UniProt entry; tags and fusion partners are left off. A change or cut given only in a name is not applied to a line headed by its entry.
UniProt Q6VY07: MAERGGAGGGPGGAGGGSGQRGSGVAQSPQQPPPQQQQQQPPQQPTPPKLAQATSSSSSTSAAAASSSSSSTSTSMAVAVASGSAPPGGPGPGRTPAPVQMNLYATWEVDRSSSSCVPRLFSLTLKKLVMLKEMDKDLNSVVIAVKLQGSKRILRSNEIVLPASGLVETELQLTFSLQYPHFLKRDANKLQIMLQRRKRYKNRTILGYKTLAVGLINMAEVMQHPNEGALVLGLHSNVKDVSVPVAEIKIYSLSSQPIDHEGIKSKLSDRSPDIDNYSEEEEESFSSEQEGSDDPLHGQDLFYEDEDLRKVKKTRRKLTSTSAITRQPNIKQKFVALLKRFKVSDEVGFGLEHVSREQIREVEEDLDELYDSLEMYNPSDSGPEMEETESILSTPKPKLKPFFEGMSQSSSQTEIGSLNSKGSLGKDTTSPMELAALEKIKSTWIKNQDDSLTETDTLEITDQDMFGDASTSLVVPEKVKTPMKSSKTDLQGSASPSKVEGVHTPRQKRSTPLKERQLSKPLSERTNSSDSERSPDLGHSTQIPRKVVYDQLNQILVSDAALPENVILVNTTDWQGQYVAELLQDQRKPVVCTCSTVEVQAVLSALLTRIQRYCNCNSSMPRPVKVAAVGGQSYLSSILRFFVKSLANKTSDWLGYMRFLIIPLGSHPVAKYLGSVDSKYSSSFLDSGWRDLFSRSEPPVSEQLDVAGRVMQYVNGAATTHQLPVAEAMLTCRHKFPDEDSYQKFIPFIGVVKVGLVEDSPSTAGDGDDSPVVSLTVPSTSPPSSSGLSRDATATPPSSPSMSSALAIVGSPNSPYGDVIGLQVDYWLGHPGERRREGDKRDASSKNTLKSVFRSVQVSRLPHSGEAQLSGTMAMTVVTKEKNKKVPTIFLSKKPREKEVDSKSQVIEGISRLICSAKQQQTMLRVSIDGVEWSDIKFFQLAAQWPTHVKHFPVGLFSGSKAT
UniProt Q86VP3: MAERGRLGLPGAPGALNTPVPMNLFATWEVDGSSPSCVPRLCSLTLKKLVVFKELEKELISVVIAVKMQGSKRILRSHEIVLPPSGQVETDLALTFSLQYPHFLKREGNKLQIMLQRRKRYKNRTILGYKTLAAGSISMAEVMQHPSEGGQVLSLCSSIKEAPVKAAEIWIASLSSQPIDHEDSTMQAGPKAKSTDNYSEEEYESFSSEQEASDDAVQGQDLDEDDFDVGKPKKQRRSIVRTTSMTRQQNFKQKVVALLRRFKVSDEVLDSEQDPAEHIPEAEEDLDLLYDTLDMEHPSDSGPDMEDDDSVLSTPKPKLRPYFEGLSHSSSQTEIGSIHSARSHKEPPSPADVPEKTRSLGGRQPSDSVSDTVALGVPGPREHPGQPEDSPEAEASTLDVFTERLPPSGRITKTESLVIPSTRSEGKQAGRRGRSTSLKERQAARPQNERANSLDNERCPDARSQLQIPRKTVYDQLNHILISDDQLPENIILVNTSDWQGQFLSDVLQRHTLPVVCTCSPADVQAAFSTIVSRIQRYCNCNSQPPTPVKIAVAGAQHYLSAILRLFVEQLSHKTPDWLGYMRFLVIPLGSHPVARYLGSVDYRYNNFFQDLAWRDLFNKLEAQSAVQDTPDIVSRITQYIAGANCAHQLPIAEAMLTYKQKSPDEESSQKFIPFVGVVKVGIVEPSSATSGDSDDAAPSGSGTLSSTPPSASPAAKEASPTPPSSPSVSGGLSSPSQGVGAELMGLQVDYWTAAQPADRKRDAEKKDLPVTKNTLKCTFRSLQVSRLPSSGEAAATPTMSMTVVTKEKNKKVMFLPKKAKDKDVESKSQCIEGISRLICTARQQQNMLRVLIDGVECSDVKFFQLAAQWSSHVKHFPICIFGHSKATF
UniProt Q9UBN7: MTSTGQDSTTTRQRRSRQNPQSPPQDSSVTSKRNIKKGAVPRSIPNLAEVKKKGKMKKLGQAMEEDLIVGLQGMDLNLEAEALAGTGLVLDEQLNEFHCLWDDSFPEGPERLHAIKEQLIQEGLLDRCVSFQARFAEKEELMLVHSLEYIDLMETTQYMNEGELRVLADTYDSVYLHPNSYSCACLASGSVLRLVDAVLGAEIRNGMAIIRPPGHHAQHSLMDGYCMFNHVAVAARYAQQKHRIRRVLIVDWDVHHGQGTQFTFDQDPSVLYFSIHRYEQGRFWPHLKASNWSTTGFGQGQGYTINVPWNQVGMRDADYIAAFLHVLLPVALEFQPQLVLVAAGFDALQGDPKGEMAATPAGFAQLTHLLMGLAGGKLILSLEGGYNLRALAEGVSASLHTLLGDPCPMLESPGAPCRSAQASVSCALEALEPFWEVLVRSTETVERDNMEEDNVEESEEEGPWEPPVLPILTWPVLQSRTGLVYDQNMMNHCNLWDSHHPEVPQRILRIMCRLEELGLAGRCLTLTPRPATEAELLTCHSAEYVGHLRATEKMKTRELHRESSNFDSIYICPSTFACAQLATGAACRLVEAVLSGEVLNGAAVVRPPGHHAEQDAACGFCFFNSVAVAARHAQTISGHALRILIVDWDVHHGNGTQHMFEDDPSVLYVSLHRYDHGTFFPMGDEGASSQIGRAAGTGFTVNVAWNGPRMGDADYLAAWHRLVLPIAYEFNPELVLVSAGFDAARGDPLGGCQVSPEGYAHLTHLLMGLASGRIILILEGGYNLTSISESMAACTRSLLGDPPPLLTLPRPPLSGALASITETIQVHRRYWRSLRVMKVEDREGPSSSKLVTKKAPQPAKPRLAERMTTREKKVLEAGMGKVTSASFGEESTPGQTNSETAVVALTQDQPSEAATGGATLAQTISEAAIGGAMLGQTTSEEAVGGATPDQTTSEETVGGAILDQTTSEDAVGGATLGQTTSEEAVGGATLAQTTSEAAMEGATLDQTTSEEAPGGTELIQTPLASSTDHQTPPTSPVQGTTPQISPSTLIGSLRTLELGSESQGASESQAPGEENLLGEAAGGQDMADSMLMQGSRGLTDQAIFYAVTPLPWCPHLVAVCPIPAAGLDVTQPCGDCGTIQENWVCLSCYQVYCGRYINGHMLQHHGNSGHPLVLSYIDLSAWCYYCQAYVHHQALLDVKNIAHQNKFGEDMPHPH

Key:
[1] = biological target: Endogenous PACS1 (phosphofurin acidic cluster sorting protein 1) of control fibroblasts (Coriell 127160) (human) (UniProt Q6VY07); assay: co-immunoprecipitation of endogenous proteins from control fibroblasts, western blot
[2] = biological target: Endogenous PACS1 (phosphofurin acidic cluster sorting protein 1) of control fibroblasts (Coriell 127160) (human) (UniProt Q6VY07); assay: co-immunoprecipitation of endogenous proteins from control fibroblast lysate with anti-HDAC6, western blot
HA-tagged PACS2 (human) = HA-tagged PACS2 (human) (UniProt Q86VP3); assay: co-immunoprecipitation (anti-Flag) from co-transfected HCT116 cells, anti-HA western blot
HA-tagged PACS1 (human) = HA-tagged PACS1 (human) (UniProt Q6VY07); assay: as above
[3] = biological target: HA-tagged PACS1R203W (human) (UniProt Q6VY07); assay: as above

binding [1] | binding [2] | binding (HA-tagged PACS2 (human)) | binding (HA-tagged PACS1 (human)) | binding [3] | Substance
binds | binds |  |  |  | Endogenous HDAC6 (histone deacetylase 6) of control fibroblasts (Coriell 127160) (from UniProt Q9UBN7 1-1215) (enzyme)
 |  | binds | binds | binds | Flag-tagged HDAC6 (from UniProt Q9UBN7 1-1215) (enzyme)
